According to PMC4992831:
Results are given in words; binding and its absence hold for the method and conditions named. For some of these results: Binding seen in cells or lysates may run through a third protein. Some entries that bind do so weakly or less than the wild type. Tags and fused reporters may be left off the sequences shown.

T1: Lis1 (pEGFP-C3 construct) (human) (UniProt P43034)
T1 sequence: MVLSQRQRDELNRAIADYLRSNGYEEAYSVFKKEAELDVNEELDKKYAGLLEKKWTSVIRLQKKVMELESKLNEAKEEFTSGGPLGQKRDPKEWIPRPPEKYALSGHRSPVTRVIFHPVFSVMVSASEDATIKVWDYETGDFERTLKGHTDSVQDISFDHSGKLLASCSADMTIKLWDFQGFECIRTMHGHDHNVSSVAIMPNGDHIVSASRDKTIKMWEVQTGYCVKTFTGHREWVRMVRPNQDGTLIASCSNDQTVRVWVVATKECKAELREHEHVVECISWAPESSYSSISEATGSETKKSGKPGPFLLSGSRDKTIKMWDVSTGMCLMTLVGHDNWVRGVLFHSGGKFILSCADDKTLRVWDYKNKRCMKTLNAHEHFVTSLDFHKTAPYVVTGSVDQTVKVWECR


Columns and labels:
[1] = molecular target: T1, Lis1 (pEGFP-C3 construct) (human); experiment: co-IP; transfected cells (HEK293 stated for Fig. S3E, F), pair tested with or without a co-expressed third protein (Tara, Ndel1 or Flag-Trio^1118–1919); precipitating antibody not shown
[2] = molecular target: Flag-Trio^1118–1919 (human) (UniProt O75962); experiment: as above
[3] = molecular target: Trio^1118–1919, pPC97 two-hybrid fusion (human) (UniProt O75962); experiment: two-hybrid; direct test of co-transformants in pPC97 and pPC86, MaV203 yeast; colony-lifting assay for β-galactosidase expression

Row | binding [2] | Binder | other results
1 | – | Flag-Ndel1 (protein, UniProt Q9GZM8 1-345) MDGEDIPDFSSLKEETAYWKELSLKYKQSFQEARDELVEFQEGSRELEAELEAQLVQAEQRNRDLQADNQRLKYEVEALKEKLEHQYAQSYKQVSVLEDDLSQTRAIKEQLHKYVRELEQANDDLERAKRATIVSLEDFEQRLNQAIERNAFLESELDEKESLLVSVQRLKDEARDLRQELAVRERQQEVTRKSAPSSPTLDCEKMDSAVQASLSLPATPVGKGTENTFPSPKAIPNGFGTSPLTPSARISALNIVGDLLRKVGALESKLAACRNFAKDQASRKSYISGNVNCGVLNGNGTKFSRSGHTSFFDKGAVNGFDPAPPPPGLGSSRPSSAPGMLPLSV | binding [1]: binds
2 | binds | Myc-Tara (protein, UniProt Q9H2D6-5 1-593) MTPDLLNFKKGWMSILDEPGEPPSPSLTTTSTSQWKKHWFVLTDSSLKYYRDSTAEEADELDGEIDLRSCTDVTEYAVQRNYGFQIHTKDAVYTLSAMTSGIRRNWIEALRKTVRPTSAPDVTKLSDSNKENALHSYSTQKGPLKAGEQRAGSEVISRGGPRKADGQRQALDYVELSPLTQASPQRARTPARTPDRLAKQEELERDLAQRSEERRKWFEATDSRTPEVPAGEGPRRGLGAPLTEDQQNRLSEEIEKKWQELEKLPLRENKRVPLTALLNQSRGERRGPPSDGHEALEKEVQALRAQLEAWRLQGEAPQSALRSQEDGHIPPGYISQEACERSLAEMESSHQQVMEELQRHHERELQRLQQEKEWLLAEETAATASAIEAMKKAYQEELSRELSKTRSLQQGPDGLRKQHQSDVEALKRELQVLSEQYSQKCLEIGALMRQAEEREHTLRRCQQEGQELLRHNQELHGRLSEEIDQLRGFIASQGMGNGCGRSNERSSCELEVLLRVKENELQYLKKEVQCLRDELQMMQKDKRFTSGKYQDVYVELSHIKTRSEREIEQLKEHLRLAMAALQEKESMRNSLAE | –
3 | – | Tara, pPC86 two-hybrid fusion (protein, UniProt Q9H2D6-5 1-593) MTPDLLNFKKGWMSILDEPGEPPSPSLTTTSTSQWKKHWFVLTDSSLKYYRDSTAEEADELDGEIDLRSCTDVTEYAVQRNYGFQIHTKDAVYTLSAMTSGIRRNWIEALRKTVRPTSAPDVTKLSDSNKENALHSYSTQKGPLKAGEQRAGSEVISRGGPRKADGQRQALDYVELSPLTQASPQRARTPARTPDRLAKQEELERDLAQRSEERRKWFEATDSRTPEVPAGEGPRRGLGAPLTEDQQNRLSEEIEKKWQELEKLPLRENKRVPLTALLNQSRGERRGPPSDGHEALEKEVQALRAQLEAWRLQGEAPQSALRSQEDGHIPPGYISQEACERSLAEMESSHQQVMEELQRHHERELQRLQQEKEWLLAEETAATASAIEAMKKAYQEELSRELSKTRSLQQGPDGLRKQHQSDVEALKRELQVLSEQYSQKCLEIGALMRQAEEREHTLRRCQQEGQELLRHNQELHGRLSEEIDQLRGFIASQGMGNGCGRSNERSSCELEVLLRVKENELQYLKKEVQCLRDELQMMQKDKRFTSGKYQDVYVELSHIKTRSEREIEQLKEHLRLAMAALQEKESMRNSLAE | binding [3]: binds
4 | binds | GFP-Tara^Δ413–499 (protein, UniProt Q9H2D6-5) MTPDLLNFKKGWMSILDEPGEPPSPSLTTTSTSQWKKHWFVLTDSSLKYYRDSTAEEADELDGEIDLRSCTDVTEYAVQRNYGFQIHTKDAVYTLSAMTSGIRRNWIEALRKTVRPTSAPDVTKLSDSNKENALHSYSTQKGPLKAGEQRAGSEVISRGGPRKADGQRQALDYVELSPLTQASPQRARTPARTPDRLAKQEELERDLAQRSEERRKWFEATDSRTPEVPAGEGPRRGLGAPLTEDQQNRLSEEIEKKWQELEKLPLRENKRVPLTALLNQSRGERRGPPSDGHEALEKEVQALRAQLEAWRLQGEAPQSALRSQEDGHIPPGYISQEACERSLAEMESSHQQVMEELQRHHERELQRLQQEKEWLLAEETAATASAIEAMKKAYQEELSRELSKTRSLQQGPGRSNERSSCELEVLLRVKENELQYLKKEVQCLRDELQMMQKDKRFTSGKYQDVYVELSHIKTRSEREIEQLKEHLRLAMAALQEKESMRNSLAE | –
